The target of this assay is pyruvate kinase M2 (PKM2), endogenous protein of 293T cells (human) (UniProt P14618). Description: anti-FLAG pull-down from 293T lysate, SDS-PAGE with silver stain.

By UniProt entry, the sequences of proteins in these tests, tags left out. Where a name states a change or a piece, a line headed by the entry shows the natural chain unless it says otherwise.
UniProt P14618: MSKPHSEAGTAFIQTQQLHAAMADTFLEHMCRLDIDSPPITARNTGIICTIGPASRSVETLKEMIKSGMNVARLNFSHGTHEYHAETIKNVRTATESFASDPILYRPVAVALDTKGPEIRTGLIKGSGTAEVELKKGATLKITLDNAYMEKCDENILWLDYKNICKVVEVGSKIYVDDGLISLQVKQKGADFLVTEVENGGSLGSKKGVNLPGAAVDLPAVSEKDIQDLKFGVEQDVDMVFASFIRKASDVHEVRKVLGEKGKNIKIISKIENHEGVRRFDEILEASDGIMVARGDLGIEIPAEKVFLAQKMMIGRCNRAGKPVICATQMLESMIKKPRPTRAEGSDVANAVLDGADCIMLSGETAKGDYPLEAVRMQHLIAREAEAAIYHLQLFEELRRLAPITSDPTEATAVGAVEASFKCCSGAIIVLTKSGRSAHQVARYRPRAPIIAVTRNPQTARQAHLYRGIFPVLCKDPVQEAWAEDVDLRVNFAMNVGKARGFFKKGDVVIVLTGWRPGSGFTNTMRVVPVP

No constants are given. Whether binding was seen depends on the method and setting. In cells and extracts the contact can be indirect. Some results given as binding are weak or reduced against the parent protein; the word gives no strength.

B1: intrabody clone IB12 (scFv)
scFv: MAQVQLVQSGGGLVKPGGSLRLSCTASGFTFSTYWMHWFRQAPGKGLLWVSRINPDGSATIYADSVKGRFTISRDNAKNSLYLQMNSLRDEDTAVYYCARGHPLSGYPGYFDYWGQGTLVTVSSGGGGSGGGGSGVADPRLCSLSRLPSLHLLEHQQSHLHFTSGINVGAYRIYWYQQKPGSPPQFLLRYKSDSDKQQGSGVPSRFSGSRDASANAGILLISGLRSEDEADYYCAIWHSSAWVFGGGTKLTVLWGSGLASVDYKDDDDK
As for B1, the binding result is recorded as “binds”.

Values taken from patent US20200239597A1, “AN ANTI-APOPTOTIC FUNCTION OF PKM2 AND INTRACELLULARLY EXPRESSED SCFV ANTIBODIES” (La Jolla Institute for Allergy and Immunology, priority 2017, published 2020).
